Patent publication US7939098B2, “Compositions and method for transmucosal drug delivery and cryoprotection” (Femina Pharma Incorporated, priority 2002, dated 2011)

Key:
[1] = system: healthy female rabbits; details: rabbit, in vivo
Protocol: A 10 day, repeat dose, vaginal toxicity study was conducted in healthy female rabbits. Three doses and two controls were used. […] Doses of SUPPOCIRE® and SUPPOCIRE® plus ethoxydiglycol were used as controls. The study findings are summarized below.

[2] = in vivo; details: female, New Zealand white, rabbit
[3] = female, New Zealand white, rabbit, in vivo

NCCCC(O)(P(=O)(O)O)P(=O)(O)O [alendronate]
one-time vaginal dose in humans supported by toxicology results [1]: ≤ 3 mg | AUC ([2]; 0.14 mg/kg): 180 ± 82.4 ng·h/mL | Cmax ([2]; 0.14 mg/kg): 34 ± 14.4 ng/mL | Tmax ([2]; 0.14 mg/kg): ~0.5 h | AUC ([2]; iv, 0.15 mg/kg): 653 ng·h/mL | AUC ([2]; po, 0.22 mg/kg): 18.2 ± 12.1 ng·h/mL | Cmax ([2]; po, 0.22 mg/kg): 1.8 ± 1.2 ng/mL | Tmax ([2]; po, 0.22 mg/kg): 4.8 ± 2 h | share of the oral dose sufficient for vaginal administration to reach equivalent plasma concentrations [3]: approximately 7 % of the oral dose
